In patent publication US20060058231A1:
Results are given in words; binding and its absence hold for the method and conditions named. Some results given as binding are weak or reduced against the parent protein; the word gives no strength. For some assays here: Where a sequence is shown, tags or fusion partners need not be part of it.

Protein sequences, listed by entry. Tags and fused reporters are not part of them. Lines headed by an entry give the natural chain unless they say otherwise; changes in a name come on top. Residues count along the entry.
UniProt P27037, residues 20-134: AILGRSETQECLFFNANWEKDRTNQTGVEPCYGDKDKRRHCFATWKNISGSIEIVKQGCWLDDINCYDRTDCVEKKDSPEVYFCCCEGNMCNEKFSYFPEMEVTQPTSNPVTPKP
UniProt P36894, residues 24-152: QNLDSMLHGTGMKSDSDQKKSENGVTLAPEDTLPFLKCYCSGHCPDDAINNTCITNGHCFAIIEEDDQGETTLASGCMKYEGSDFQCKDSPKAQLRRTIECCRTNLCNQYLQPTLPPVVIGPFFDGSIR
UniProt P18075: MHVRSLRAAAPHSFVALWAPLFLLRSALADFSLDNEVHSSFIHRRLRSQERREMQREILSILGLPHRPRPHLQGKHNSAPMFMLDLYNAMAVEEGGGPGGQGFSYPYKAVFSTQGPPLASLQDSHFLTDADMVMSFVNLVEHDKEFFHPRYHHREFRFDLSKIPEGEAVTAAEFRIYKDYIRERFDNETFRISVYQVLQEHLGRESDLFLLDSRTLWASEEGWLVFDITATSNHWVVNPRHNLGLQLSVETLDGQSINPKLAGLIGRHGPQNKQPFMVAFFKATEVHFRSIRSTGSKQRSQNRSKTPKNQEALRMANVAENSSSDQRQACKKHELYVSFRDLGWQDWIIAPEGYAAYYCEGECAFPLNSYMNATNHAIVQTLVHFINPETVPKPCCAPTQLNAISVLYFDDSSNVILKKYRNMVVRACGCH

What was measured:
[1] = target: ActRIIa receptor/Fc fusion (R&D Systems) (UniProt P27037); assay: plate direct binding assay, receptor-Fc detection, 12-point dilution
[2] = target: T1, BMPRII receptor/Fc fusion (R&D Systems) (UniProt Q13873); assay: as above
T1 sequence (looked up): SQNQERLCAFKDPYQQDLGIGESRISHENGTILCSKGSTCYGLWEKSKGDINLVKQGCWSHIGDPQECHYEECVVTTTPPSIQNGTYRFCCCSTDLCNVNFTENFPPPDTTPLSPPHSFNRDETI

[3] = target: BMPRIa receptor/Fc fusion (R&D Systems) (UniProt P36894); assay: as above
[4] = target: T2, BMPRIb receptor/Fc fusion (R&D Systems) (UniProt O00238); assay: as above
T2 sequence (looked up): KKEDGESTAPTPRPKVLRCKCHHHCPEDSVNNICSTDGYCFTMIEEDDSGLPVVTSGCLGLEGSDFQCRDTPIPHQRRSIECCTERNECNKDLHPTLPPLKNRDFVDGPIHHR

[5] = target: BMPRIa receptor/Fc fusion (R&D Systems) (UniProt P36894); assay: plate direct binding assay, 12-point titration of receptor-Fc ([ALK-3]) on captured BMP-7 from conditioned medium; axes carry no unit
[6] = target: T2, BMPRIb receptor/Fc fusion (R&D Systems); assay: plate direct binding assay, 12-point titration of receptor-Fc ([ALK-6]) on captured BMP-7 from conditioned medium; axes carry no unit
[7] = target: T1, BMPRII receptor/Fc fusion (R&D Systems); assay: plate direct binding assay, 12-point titration of receptor-Fc ([BMPRII]) on captured BMP-7 from conditioned medium; axes carry no unit
[8] = target: ActRIIa receptor/Fc fusion (R&D Systems) (UniProt P27037); assay: plate direct binding assay, 12-point titration of receptor-Fc ([ActRIIa]) on captured BMP-7 from conditioned medium; axes carry no unit
[9] = target: BMPRIa receptor/Fc fusion (R&D Systems) (UniProt P36894); assay: plate direct binding assay, 12-point titration of BMPRIa-Fc chimera on captured BMP-7; absorbance 450 nm; concentration axis carries no unit
[10] = target: T2, BMPRIb receptor/Fc fusion (R&D Systems); assay: plate direct binding assay, 12-point titration of BMPRIb-Fc chimera on captured BMP-7; absorbance 450 nm; concentration axis carries no unit
[11] = target: T1, BMPRII receptor/Fc fusion (R&D Systems); assay: plate direct binding assay, 12-point titration of BMPRII-Fc chimera on captured BMP-7; absorbance 450 nm; concentration axis carries no unit
[12] = target: ActRIIa receptor/Fc fusion (R&D Systems) (UniProt P27037); assay: plate direct binding assay, 12-point titration of ActRIIa-Fc chimera on captured BMP-7; absorbance 450 nm; concentration axis carries no unit
[13] = target: ActRIIa receptor/Fc fusion (R&D Systems) (UniProt P27037); assay: plate direct binding assay (ELISA-like): BMP-7 captured by anti-BMP-7 antibody, receptor-Fc titrated (x axis Receptor, ug/mL), anti-human IgG-HRP, absorbance 450 nm
[14] = target: T1, BMPRII receptor/Fc fusion (R&D Systems); assay: as above
[15] = target: BMPRIa receptor/Fc fusion (R&D Systems) (UniProt P36894); assay: as above
[16] = target: T2, BMPRIb receptor/Fc fusion (R&D Systems); assay: as above
[17] = target: ActRIIa receptor/Fc fusion (R&D Systems) (UniProt P27037); assay: plate direct binding assay, BMP-7 from conditioned medium captured by anti-BMP-7 antibody, receptor-Fc titrated in 12 points; EC50 drawn as a bar, no number given
[18] = target: T1, BMPRII receptor/Fc fusion (R&D Systems); assay: as above
[19] = target: BMPRIa receptor/Fc fusion (R&D Systems) (UniProt P36894); assay: as above
[20] = target: T2, BMPRIb receptor/Fc fusion (R&D Systems); assay: as above

Measured: binding

wild type human BMP-7 (Image clone) (from UniProt P18075 293-431 at identity 0.99)) (ligand)
binds: all assays above
